Test results: patent US20200291116A1 (ABEXXA BIOLOGICS, published 2020)
Results are given in words; binding and its absence hold for the method and conditions named. Some entries that bind do so weakly or less than the wild type.

Protein sequences, listed by entry. Tags and fused reporters are not part of them. Lines headed by an entry give the natural chain unless they say otherwise; changes in a name come on top.
UniProt P13747: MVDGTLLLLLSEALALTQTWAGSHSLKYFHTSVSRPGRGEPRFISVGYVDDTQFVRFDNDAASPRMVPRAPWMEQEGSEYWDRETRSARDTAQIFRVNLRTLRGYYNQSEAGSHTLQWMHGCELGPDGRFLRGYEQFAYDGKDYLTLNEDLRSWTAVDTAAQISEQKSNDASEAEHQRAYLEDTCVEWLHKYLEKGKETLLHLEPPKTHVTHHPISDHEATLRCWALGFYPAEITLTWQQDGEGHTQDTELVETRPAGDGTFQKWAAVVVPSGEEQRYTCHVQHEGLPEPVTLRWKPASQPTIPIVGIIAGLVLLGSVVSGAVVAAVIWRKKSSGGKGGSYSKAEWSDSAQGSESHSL
UniProt P61769: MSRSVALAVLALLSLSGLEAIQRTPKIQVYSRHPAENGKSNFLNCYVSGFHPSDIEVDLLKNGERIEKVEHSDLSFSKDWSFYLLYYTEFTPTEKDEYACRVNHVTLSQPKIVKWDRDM

Tests used:
[1] = biological target: T1, HLA-E molecules expressed in PDX lung tumor tissue (model LU5139) (human) (UniProt P13747+P61769); experiment: LC/MS/MS against a synthetic peptide standard
[2] = biological target: T1, HLA-E molecules expressed in PDX lung tumor tissue (model LU5139) (human); experiment: LC/MS/MS of peptides eluted from HLA-E purified on a 4D12 column

B1: peptide GLADKVYFL (CAD protein) (peptide)
peptide: GLADKVYFL
**Q.** With B1 as the binder, how does the binding [1] read?
**A.** Its binding is “binds”.

**Q.** What about the binding [2] of the same binder?
**A.** The binding was “binds”.
